Our source for the binding values is patent publication US20240018213A1.

The test has as its target BSA (negative) (bovine). Nature of the test: Open SPR; BSA immobilized as negative control, Tan 6 injected neat (2.2 µM), 1:10 (0.22 µM) and HBS buffer only.

No constants are given. Whether binding was seen depends on the method and setting. Binding calls can cover weak binding; strength is not graded here.

B1: MuDLL1.DSL-EGF12.Tan 6 (NL 99) (ligand)
chain: MAAHHHHHHGGENLYFQGFVCDEHYYGEGCSVFCRPRDDAFGHFTCGDRGEKMCDPGWKGQYCTDPICLPGCDDQHGYCDKPGECKCRVGWQGRYCDECIRYPGCLHGTCQQPWQCNCQEGWGGLFCNQGSSGSSGFVCDEHYYGEGCSVFCRPRDDAFGHFTCGDRGEKMCDPGWKGQYCTDPICLPGCDDQHGYCDKPGECKCRVGWQGRYCDECIRYPGCLHGTCQQPWQCNCQEGWGGLFCNQGSSGSSGFVCDEHYYGEGCSVFCRPRDDAFGHFTCGDRGEKMCDPGWKGQYCTDPICLPGCDDQHGYCDKPGECKCRVGWQGRYCDECIRYPGCLHGTCQQPWQCNCQEGWGGLFCNQGSSGSSGFVCDEHYYGEGCSVFCRPRDDAFGHFTCGDRGEKMCDPGWKGQYCTDPICLPGCDDQHGYCDKPGECKCRVGWQGRYCDECIRYPGCLHGTCQQPWQCNCQEGWGGLFCNQGSSGSSGFVCDEHYYGEGCSVFCRPRDDAFGHFTCGDRGEKMCDPGWKGQYCTDPICLPGCDDQHGYCDKPGECKCRVGWQGRYCDECIRYPGCLHGTCQQPWQCNCQEGWGGLFCNQGSSGSSGFVCDEHYYGEGCSVFCRPRDDAFGHFTCGDRGEKMCDPGWKGQYCTDPICLPGCDDQHGYCDKPGECKCRVGWQGRYCDECIRYPGCLHGTCQQPWQCNCQEGWGGLFCNQ
Regarding B1, the binding entry is reported as “binds”.
